Test system: L5178Y cells
Experiment: In vitro micronucleus test, flow cytometric (EMA/SYTOX) and microscopy scoring, L5178Y cells
Conditions: 0-4 hr treatments to accumulate cells in metaphase; only when particles resuspended by gentle tapping
Procedure: L5178Y cells were treated over a range of chemical concentrations in culture medium, one 25 cm^2 flask per concentration. During treatment, cells were at 3×10^5/ml in a volume of 20 ml per flask (this high number of cells facilitated multiple readings per flask). After a 4 hr treatment period, cells were washed one time via centrifugation at 600×g, resuspended in a volume of 40 ml culture medium, and transferred to 75 cm^2 flasks. Cells were re-incubated at 37° C. for 20 additional hrs—the equivalent of two normal doubling times.
In this case, cultures (1.5×10^5 cells/ml, 40 ml/flask) were continuously exposed to chemical over a range of concentrations. […]
Samples, stored for up to two days at 4° C., were gently tapped to resuspend the particles. […] SYTOX-associated fluorescence emission was collected in the FL1 channel (530/30 band-pass filter), and EMA-associated fluorescence was collected in the FL3 channel (670 long-pass filter). Events were triggered on FL1 fluorescence. The FCM gating strategy that was developed for this micronuclei scoring application required events to meet each of six separate criteria before they were scored as nuclei or micronuclei (see FIGS. 2A-H). The incidence of flow cytometric-scored micronuclei is expressed as frequency percent (no. micronuclei/no. nuclei×100), and are based on the acquisition of 20,000 EMA-negative nuclei per specimen. […]

CN[C@H]1CCc2cc(OC)c(OC)c(OC)c2-c2ccc(OC)c(=O)cc21 [colcemid]
micronuclei frequencies by flow cytometric analysis: baseline-like
